Source: PubChem BioAssay AID504764 (Drosophila RNAi Screening Center, 2011)

- Test: 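Knock-downs that raise or lower a Notch target reporter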 (primary screen)
- Cell system: Drosophila Kc167 cells
- Reagent: long dsRNA against Drosophila genes
- Duration: about 5 days (4 days dsRNA, then 24 h after transfection)
- Conditions: transfection of constitutively active membrane-tethered Notch lacking the extracellular domain, read 24 h later
- Read-out: 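Light from a Notch-responsive E(spl)m3 luciferase reporter under active Notch, with control-promoter and no-Notch reporter wells to normalise; raw counts from paired wells a and b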
- Scale: induced reporter light, run 1, well a and induced reporter light, run 1, well b: higher = more light from the Notch target reporter with active Notch; control promoter light, run 1, well a and control promoter light, run 1, well b: higher = more light from the viral control promoter (cell number, transfection, viability); uninduced reporter light, run 1, well a: higher = more light from the Notch target reporter without active Notch
- Hit rule: 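Wells with low control signal or poorly matching duplicates excluded; duplicates averaged; per source plate, z beyond ±2 for induced/control log2 ratio or beyond ±1.8 for induced/uninduced marks a hit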
- Calls: active = modifier hit (raised or lowered Notch signal); inactive = not a hit
In all, the deposit lists about 22,000 reagents; shown is an unselected part of those with a known target gene and a result. Of all reagents, 403 (1.9%) are marked active. 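Unnormalised raw counts per well; ratio z-scores behind the hit calls and whether each hit raises or lowers signal are not deposited.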 The record does not give: the amount of reagent.

no.	predicted target	dsRNA	induced reporter light, run 1, well a	induced reporter light, run 1, well b	control promoter light, run 1, well a	control promoter light, run 1, well b	uninduced reporter light, run 1, well a	outcome
1	TyrRS	DRSC10430	46505	43565	35490	52295	3645	inactive
2	CG3776	DRSC04417	2.63e5	2.50e5	2.34e5	2.40e5	13725	active
3	CG30378	DRSC05071	56725	69235	86420	75685	3940	inactive
4	CG5550	DRSC06943	89520	97375	1.57e5	2.14e5	9725	inactive
5	rau	DRSC03125	1.87e5	2.10e5	1.95e5	1.84e5	12820	inactive
6	CG34125	DRSC00850	46465	50535	30855	25860	4850	inactive
7	ebo	DRSC18787	49450	59715	53800	66620	3570	inactive
8	CG13958 (retired record)	DRSC02300	42715	35745	68695	86845	3640	inactive
9	Seipin	DRSC18654	1.30e5	1.41e5	2.82e5	1.82e5	8455	inactive
10	CG18336	DRSC06334	1.05e5	1.31e5	1.46e5	1.55e5	11705	inactive
11	CG12341	DRSC06133	1.78e5	1.29e5	1.94e5	1.99e5	14075	inactive
12	CG7728	DRSC10907	1.13e5	1.27e5	67435	78530	9440	inactive
13	mRpL43	DRSC04508	2.41e5	2.08e5	1.80e5	1.99e5	16035	inactive
14	mRpL43	DRSC22571						inactive
15	Cp19	DRSC11121	1.55e5	1.39e5	1.47e5	1.74e5	10105	inactive
16	CG12376	DRSC06144	1.68e5	1.88e5	1.97e5	1.66e5	14165	inactive
17	Gr22f	DRSC00076	1.15e5	97330	1.48e5	1.58e5	8020	inactive
18	dar1	DRSC08049	2.60e5	2.35e5	2.19e5	2.30e5	17790	inactive
19	dar1	DRSC08233	1.03e5	1.18e5	2.21e5	1.38e5	6930	inactive
20	CG15784	DRSC18090	99225	94165	2.50e5	3.10e5	10860	active
21	Ctu1	DRSC07069	1.61e5	1.71e5	2.41e5	2.53e5	15200	inactive
22	CG34149	DRSC14537	1.89e5	1.65e5	2.37e5	2.10e5	15165	inactive
23	CR40354	DRSC20923	3.28e5	3.04e5	5.22e5	3.99e5	19085	inactive
24	CG9517 (retired record)	DRSC20192	1.44e5	93105	1.24e5	97360	14220	inactive
25	CG9517 (retired record)	DRSC20193	83930	67575	87880	77810	11690	inactive
26	CG13384	DRSC02258	85370	96105	92320	1.03e5	8030	inactive

Continued (6 carried over from the part before).
no.	predicted target	dsRNA	induced reporter light, run 1, well a	induced reporter light, run 1, well b	control promoter light, run 1, well a	control promoter light, run 1, well b	uninduced reporter light, run 1, well a	outcome
21	Ctu1	DRSC07069	1.61e5	1.71e5	2.41e5	2.53e5	15200	inactive
22	CG34149	DRSC14537	1.89e5	1.65e5	2.37e5	2.10e5	15165	inactive
23	CR40354	DRSC20923	3.28e5	3.04e5	5.22e5	3.99e5	19085	inactive
24	CG9517 (retired record)	DRSC20192	1.44e5	93105	1.24e5	97360	14220	inactive
25	CG9517 (retired record)	DRSC20193	83930	67575	87880	77810	11690	inactive
26	CG13384	DRSC02258	85370	96105	92320	1.03e5	8030	inactive
27	CG11231 (retired record)	DRSC17207	1.24e5	1.21e5	1.75e5	1.74e5	9065	inactive
28	CG4945	DRSC06904	1.17e5	1.13e5	2.26e5	2.59e5	8675	inactive
29	CG11409	DRSC18579	1.77e5	2.30e5	2.49e5	2.29e5	13885	inactive
30	Nup154	DRSC03384	1.64e5	2.18e5	1.57e5	1.83e5	14800	inactive
31	CG4537	DRSC02756	1.21e5	1.62e5	85135	92810	18800	inactive
32	Npc2a	DRSC00698	99455	94005	95120	58085	8860	inactive
33	mthl4	DRSC06998	54365	36285	33015	47335	3215	inactive
34	CG31464	DRSC14345	1.30e5	1.37e5	95900	74125	10388	inactive
35	Actbeta	DRSC17185	69935	77185	81095	87165	4855	inactive
36	Actbeta	DRSC17217	1.26e5	1.26e5	2.02e5	1.95e5	8465	inactive
37	RanBP3	DRSC14217	305	420	540	450	328	inactive
38	Tgi	DRSC09793	85155	96285	1.28e5	93890	5880	inactive
39	Tgi	DRSC09794	89840	86480	1.26e5	85660	6845	inactive
40	lncRNA:CR40629	DRSC20959	3.37e5	2.67e5	3.92e5	3.87e5	20415	inactive
41	CLIP-190	DRSC03283	3.22e5	2.55e5	2.64e5	3.07e5	20345	inactive
42	CG13177	DRSC06303	83165	1.06e5	1.34e5	1.28e5	9355	inactive
43	CG7110	DRSC03011	2.17e5	2.16e5	2.04e5	2.05e5	22735	inactive
44	CG7110	DRSC03012	1.29e5	1.49e5	1.51e5	1.48e5	12395	inactive
45	CG7006	DRSC16169	1.55e5	2.06e5	2.15e5	2.13e5	14095	inactive
46	Fsn	DRSC06875	1.35e5	1.62e5	1.52e5	1.50e5	13970	inactive
47	Ada2a	DRSC16206	2.54e5	2.29e5	2.59e5	2.92e5	20730	inactive
48	CG7518	DRSC16253	1.29e5	1.08e5	81640	92365	9705	inactive
49	Gr58a	DRSC03910	79845	67475	80620	86715	8930	inactive
50	Delta	DRSC16648	2.05e5	2.00e5	2.22e5	2.43e5	14335	inactive
